PubChem BioAssay AID1259424, University of Nebraska Medical Center | 2018

- Screen: 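Seek colon cancer survival genes behaving like KSR1, using a six-gene signature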 (primary screen)
- Cell system: human HCT116 colon cancer cells
- Reagent: siRNA pool against human genes, 50 nM
- Detection: 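Log2 levels of six mRNAs (branched-DNA multiplex), adjusted by two reference genes and the non-targeting median, then scored against the average KSR1 knockdown pattern as Pearson r and euclidean distance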
- Direction: mean correlation with KSR1 profile: higher = expression change more like KSR1 knockdown
This is a random part of about 14,000 deposited reagents. 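Higher correlation or smaller distance means closer resemblance to KSR1 loss; control wells, including KSR1 knockdowns, recur on many plates.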 Reagents against one gene are numbered here. Not all columns of the deposit are shown. Not stated in the record: the time to read-out.

ILK #1 showed mean correlation with KSR1 profile -0.818. Depletion of ILK #2 resulted in: mean correlation with KSR1 profile 0.545. PILRA scored mean correlation with KSR1 profile 0.338. With knock-down of BTBD1 the results were mean correlation with KSR1 profile -0.462. RIMKLB gave mean correlation with KSR1 profile -0.727. Knock-down of ATF1 gave: mean correlation with KSR1 profile 0.131.

Silencing of AK8 gave: mean correlation with KSR1 profile 0.0432. WBP2 gave mean correlation with KSR1 profile 0.593. For FRMD4B the deposit lists mean correlation with KSR1 profile -0.283. FIS1 showed mean correlation with KSR1 profile -0.292. Silencing of UQCR11 came out at: mean correlation with KSR1 profile -0.694. Against ATP11B, the values are mean correlation with KSR1 profile 0.23.

After knock-down of MPST the results were mean correlation with KSR1 profile -0.366. With knock-down of MAP1S, the record shows mean correlation with KSR1 profile 0.09. Knock-down of CLCN2 resulted in: mean correlation with KSR1 profile -0.099. CLDN22 showed mean correlation with KSR1 profile -0.213. With knock-down of ATP2B2, the screen gave mean correlation with KSR1 profile 0.223. For BLZF1 the deposit lists mean correlation with KSR1 profile -0.419.

Knock-down of PRKAA1 resulted in: mean correlation with KSR1 profile 0.273. CLEC10A scored mean correlation with KSR1 profile -0.407. Against MAP3K13, the entry reads mean correlation with KSR1 profile -0.0877. GEM gave mean correlation with KSR1 profile 0.507. ATP2B3 showed mean correlation with KSR1 profile -0.282. With knock-down of ANP32D, the record shows mean correlation with KSR1 profile -0.476.

Depletion of KIF14 came out at: mean correlation with KSR1 profile -0.341. GPNMB showed mean correlation with KSR1 profile -0.281. PKP2 showed mean correlation with KSR1 profile 0.16. With knock-down of ZNF609, the screen gave mean correlation with KSR1 profile 0.103.

No new results follow: entries from further up.
ATF1 — mean correlation with KSR1 profile = 0.131
AK8 — mean correlation with KSR1 profile = 0.0432
WBP2 — mean correlation with KSR1 profile = 0.593
